Laboratory results: PubChem BioAssay AID485314 (National Center for Advancing Translational Sciences (NCATS), 2010)
About 4,500 (1.3%) of roughly 340,000 compounds were called active. This list was built around the results that the source calls inconclusive (neither active nor inactive); the mix of calls is not that of the screen. The call rests on the fitted dose curve; in most records, active means well fitted inhibition curve with a large enough effect; inconclusive means small, poorly fitted or top-dose-only effect, or another doubt; inactive means no such curve, though single readings can be large or run the other way. Potencies beside an inconclusive call are fits to weak or partial responses and may not hold up.

The compounds below were run against DNA polymerase beta (Homo sapiens) (UniProt P06746) (assay: qHTS Assay for Inhibitors of DNA Polymerase Beta). Settings: Pol beta primer extension/strand displacement, fluorescence kinetic; activity change, negative = inhibition: at 114 µM (top of the series).
Procedure, shortened: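 Homogeneous kinetic assay of primer extension and strand displacement by 10 nM Pol beta, preincubated 15 min at room temperature with compound before 50 nM substrate (final) was added. Read at 0 and 10 min; four-parameter Hill fit.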
On the % scale 0 is the no-effect control and ±100 the full control effect; potency means the concentration at half of the fitted maximal effect.

SMILES	Potency	activity change, negative = inhibition
O=C(O)c1cc(-c2ccc(/C=N/Nc3ccc([N+](=O)[O-])cn3)o2)ccc1Cl	inconclusive: 15.8 µM [inhibitor, partial curve]	–
Cc1nc2ccccc2c(=O)n1/N=C/c1ccccc1Cl	inconclusive: 89.1 µM [inhibitor, single point]	–
Cc1ccc(-n2ncc(C(=O)NCCCN3CCCCC3)c2C2CCN(C(=O)OC(C)(C)C)CC2)cc1	inactive	–
CCCn1nnnc1NC(=O)CSc1ccc(Cl)cc1	inconclusive: 0.1 µM [inhibitor, full curve]	–
CCOC(=O)c1c(C)n(-c2ccccc2)c2ccc(OC(=O)c3ccccc3NC(=O)C(C)(C)C)cc12	inactive	–
Cc1ccc(S(=O)(=O)[N-]c2nc3ccccc3nc2-n2cc[n+](Cc3ccccc3)c2)cc1	inconclusive: 2.82 µM [inhibitor, full curve]	–
CN1CCc2c(sc3nc(NN)n(Cc4ccccc4)c(=O)c23)C1	inconclusive: 4.47 µM [inhibitor, single point]	–
Cc1ccc(-n2ncc3c(=O)n(CC(=O)N(C(C)C)C(C)C)cnc32)cc1	inconclusive: 0.126 µM [inhibitor, full curve, poor fit]	–
COc1cc(/C=C2\SC(=O)N(CCNC(=O)c3cnc(C)cn3)C2=O)cc(OC)c1OC	inconclusive: 89.1 µM [inhibitor, single point]	–
O=C(Cc1cccc2ccccc12)NC(=S)Nc1cccc(C(=O)O)c1	inconclusive: 89.1 µM [inhibitor, single point]	–
CCOC(=O)Cn1cnc2sc3c(c2c1=O)CCC3	inconclusive: 14.1 µM [inhibitor, full curve, poor fit]	–
O=C(O)c1cc(-c2ccc(C(F)(F)F)cc2)nc2n[nH]c(-c3ccccc3)c12	inconclusive: 89.1 µM [inhibitor, single point]	–
O=C(CCN1C(=O)/C(=C\C=C\c2ccccc2)SC1=S)Nc1cccc(C(=O)O)c1	active: 50.1 µM	–
Cc1onc(-c2ccccc2Cl)c1C(=O)N(Cc1nc(-c2ccccc2)no1)C1CCCCC1	inconclusive: 25.1 µM [inhibitor, partial curve]	–
COc1ccc(Cl)cc1NC(=O)CSC1=NN2CCCC(=O)N=C2S1	inconclusive: 39.8 µM [inhibitor, partial curve]	–
CC(C)C[C@H](NC(=O)N1CCn2c1nc1ccccc12)C(=O)NCc1ccc2c(c1)OCO2	–	inconclusive: -34.5% [inhibitor]
Cc1ccc(CNC(=O)c2nnn(CC(=O)Nc3cccc(C)c3C)c2N)cc1	inconclusive: 0.447 µM [inhibitor, full curve]	–

Laid out differently: 3 of the compounds above.
SMILES,Potency,"activity change, negative = inhibition"
COc1cc(/C=C2\SC(=O)N(CCNC(=O)c3cnc(C)cn3)C2=O)cc(OC)c1OC,"inconclusive: 89.1 µM [inhibitor, single point]",–
O=C(Cc1cccc2ccccc12)NC(=S)Nc1cccc(C(=O)O)c1,"inconclusive: 89.1 µM [inhibitor, single point]",–
CCOC(=O)Cn1cnc2sc3c(c2c1=O)CCC3,"inconclusive: 14.1 µM [inhibitor, full curve, poor fit]",–
